## Screening data, single-dose tests

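Phenotypic screen: M. tuberculosis growth, cholesterol and DPPC medium, 4 days; the read-out is not stated. Tested at 50 µM. Direction is inferred from retests: higher values go with more growth inhibition. About 69,000 compounds were tested under these conditions; 0.54% (about 370) showed 50% or more at least once.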

Values are the deposited “Percent Effect”, in %. The record does not define 0% and 100%; most values in the screen are far below 50% and negative numbers occur (in some assays of this library far below -100). This is an unselected part of the compounds tested. Two or more numbers in one place are separate tests of the same structure; such repeats can differ widely.

| SMILES | effect |
|---|---|
| `COc1ccc(NC(=O)N(C)Cc2ccco2)cn1` | -3.861 |
| `COCCOCCNS(=O)(=O)C1CS(=O)(=O)c2ccccc21` (stereo not given) | -15.35 |
| `Cc1cc(Cc2ccccc2F)cc(C2CCCNC2)n1` (stereo not given) | 12.59 |
| `[H][C@]12CCNC[C@@]1([H])OCCN(C(=O)c1ccco1)C2` | -25.27 and -6.407 |
| `CC(=O)N[C@@H]1CN(S(=O)(=O)c2ccc(Cl)cc2)C[C@H]1O` | 6.499 |
| `O=C(NCCCN1CCN(c2ncccn2)CC1)NCC1CCOC1` (stereo not given) | -15.64 |
| `Cc1cccc(CN2CCC3(CC2)NC(=O)CC3c2ccccc2)n1.O=C(O)C(F)(F)F` (stereo not given) | -5.492 and -2.223 |
| `COc1cccc(S(=O)(=O)N2CCCc3c(OC)nn(C)c3C2)c1` | -0.3034 and 6.057 |
| `Cc1cc(C)n(CC2CCCN2C(=O)c2c[nH]c(=O)c(Cl)c2)n1` (stereo not given) | -9.548 |
| `CNC(=O)[C@@H]1C[C@@H](N)CN1C(=O)CCSCc1ccccc1` | -8.461 |
| `COc1ccc(S(=O)(=O)N2CCOC(Cn3ccnc3)C2)cc1.Cc1ccc(S(=O)(=O)O)cc1` (stereo not given) | -10.21 |
| `CC(C)S(=O)(=O)NC(=O)c1cc(-c2cccc(Cl)c2)no1` | -17.61 |
| `COc1cccc(COCC(=O)N2CCCC(n3ccnc3)C2)c1` (stereo not given) | -10.88 |
| `CC(C)n1nc(CN2CCOCC2)c2c1CN(C(=O)c1ccno1)C2.O=C(O)C(F)(F)F` | -0.5168 |
| `Cc1ncsc1CCC(=O)NC1CCN(c2ccc(Cl)nn2)CC1` | 11.45 |
| `COCCC(=O)NCCc1nc2cc(-c3ccc(OC)cc3)ncn2n1` | -4.951 and -21.84 |
| `[H][C@@]12CNCC[C@]1(O)CCN(c1nnc(C)c3ccccc13)C2` | 11.45 |
| `CCC(=O)N1CCN(C(=O)NCc2c(C)cc(C)cc2C)CC1` | 2.819 |
| `O=C(Nc1ccnc2ccnn12)c1ccc(NC2CC2)nc1` | 4.294 |
| `CC(CNC(=O)N1CCSCC1)Cc1cccs1` (stereo not given) | 29.26 and 19.11 |
| `CN(C)Cc1cnc2n1CCN(C(=O)C1CC=CC1)CC2` | -5.43 and 18.42 |
| `CC(=O)N1CCc2nnc(C3CCCN3CC3CCCCC3)n2CC1` (stereo not given) | -0.5024 |
| `CC(C)(C)NC(=O)c1ccn(COc2ccccc2Cl)n1` | 0.7555 |
| `CN(C)CCOCC1CN(C(=O)c2ccsc2)Cc2ccnn2C1.O=C(O)C(F)(F)F.O=C(O)C(F)(F)F` (stereo not given) | 1.362 |
| `Cn1ccnc1CN1CCN(CC(O)c2ccco2)CC1` (stereo not given) | -18.69 |
| `CCCNC(=O)CN1CCOC(c2ccc(Br)cc2)C1` (stereo not given) | -3.421 |
| `Cc1cnn(CC2CN(Cc3nnc(-c4occc4C)o3)CCO2)c1` (stereo not given) | -8.333 |
| `CCCn1ncc(-c2ccnc(NC3CCSC3)n2)c1C` (stereo not given) | -13.39 and 5.252 |
| `[H][C@@]12COC[C@]1(c1nc(C)no1)CN(C(=O)C1CCOCC1)C2` | -0.4477 |
| `CN(Cc1ccco1)C(=O)CN1C(=O)c2cc(Cl)c(Cl)cc2C1=O` | -16.32 |
| `CC(c1ncc(-c2ccccc2)o1)N1CCN(C(=O)C(C)(C)C)CC1` (stereo not given) | 20.76 |
| `CC(=O)NCCc1ccc(S(=O)(=O)N(CC(C)C)C(C)C)s1` | -67.93 |
| `CC(=O)NC1CCCN(C(=O)Nc2cccnc2-n2cccn2)C1` (stereo not given) | 13.61 |
| `CCc1nnc(C2Cc3ccccc3CN2Cc2nc(C)no2)o1` (stereo not given) | -3.626 |
| `Cc1c[nH]nc1C1CCCCN1C(=O)Cn1cc(Cl)cn1` (stereo not given) | -18.51 |
| `Cc1ccsc1[C@@H]1CCN(C(=O)CCc2nc3ccccc3[nH]2)C[C@H]1O` | -22.6 |
| `O=C(c1ccc(F)cc1)N(CCCO)S(=O)(=O)c1cccs1` | 9.578 |
| `CCc1csc(C2CCCN(C(=O)c3ccc4[nH]nnc4c3)C2)n1` (stereo not given) | 4.555 |
| `[H][C@]12CCCCN1CCC[C@H]2CCC(=O)NCCc1nc(O)cc(O)n1` | -9.799 |
| `Cc1nc(N2CCCC2)nc2c1CCN(C(=O)C1CCCCC1)CC2` | -15.35 |
| `Cc1nc(COc2ccc(S(=O)(=O)N(C)C)cc2)sc1C` | 12.64 |
| `O=C(c1cscn1)N1CCC2(CCN(S(=O)(=O)c3ccccc3)C2)C1` (stereo not given) | 7.895 and -7.126 |
| `Cc1ccc(SC2CCCC2)c(C(=O)NCCO)c1` | -1.144 |
| `CCOc1cc(=O)n2c(c1C(=O)OCc1cccc(C)c1)CCCC2` | 11.73 |
| `O=C(O)C(F)(F)F.[H][C@@]12CCCO[C@]1([H])[C@H](N(C)C)CN2C(=O)Cc1ccc(F)cc1` | -21.32 |
| `CC1(C)COCCN1C(=O)CCc1nc(-c2ccncc2)no1` | -30.57 |
| `NCC(c1cccnc1)N1CCOCC1` (stereo not given) | 5.514 and 0.723 |
| `CSC(CNS(=O)(=O)c1cnn(C)c1)c1cccc(Cl)c1` (stereo not given) | 9.714 |
| `Cc1sc2nc(C(F)(F)F)nc(N3CCN(S(C)(=O)=O)CC3)c2c1C` | -7.872 |
| `Cc1ccc(-n2nnnc2C2(NCc3ccco3)CCCC2)cc1` | 4.924 |
| `Cc1ccc(CN(Cc2nc3c(cnn3C)c(=O)[nH]2)C2CC2)o1` | -15.32 |
| `Cc1ccc(CNCc2nnc3n2CCCC3C(F)(F)F)o1` (stereo not given) | -26.4 |
| `Cn1cnnc1CC1CCN(Cc2c(Cl)cncc2Cl)CC1` | -27.38 |
| `CC(C)c1nccn1C1CCCN(C(=O)c2ccc(=O)n(C)n2)C1` (stereo not given) | -10.11 and -0.3038 |
| `CN(Cc1ccc2c(c1)OCO2)Cc1cscn1` | -26.49 |
| `O=C(O)C(F)(F)F.O=C(O)C(F)(F)F.[H][C@@]12CO[C@@H](CNC(=O)c3ccco3)[C@]1([H])CCN(Cc1cnn(C)c1)C2` | 15.25 |
| `COCC1CCCCN1Cc1nc(-c2ccoc2)oc1C` (stereo not given) | -3.546 and 0.01012 |

6 of the entries, repeated:

* CCc1nnc(C2Cc3ccccc3CN2Cc2nc(C)no2)o1 (stereo not given) : -3.626%
* O=C(c1cscn1)N1CCC2(CCN(S(=O)(=O)c3ccccc3)C2)C1 (stereo not given) : 7.895% and -7.126%
* CC(=O)NC1CCCN(C(=O)Nc2cccnc2-n2cccn2)C1 (stereo not given) : 13.61%
* CC(=O)NCCc1ccc(S(=O)(=O)N(CC(C)C)C(C)C)s1 : -67.93%
* [H][C@]12CCCCN1CCC[C@H]2CCC(=O)NCCc1nc(O)cc(O)n1 : -9.799%
* CC(c1ncc(-c2ccccc2)o1)N1CCN(C(=O)C(C)(C)C)CC1 (stereo not given) : 20.76%

The values are deposited in ChEMBL (CHEMBL3988442, “University of Dundee, Small-Polar-MMV Screening Library” (2021)).